These are yes or no findings as the source states them, for the method shown. Some results given as binding are weak or reduced against the parent protein; the word gives no strength.
What was measured:
[1] = molecular target: 人PD-1抗原 (ACRO, Cat.PD-1-H5221) (human) (UniProt Q15116); assay: indirect ELISA, human PD-1 coated
[2] = molecular target: 人PD-1抗原 on Jurkat/PD-1 cells (human) (UniProt Q15116); assay: indirect flow cytometry on Jurkat/PD-1 cells
[3] = molecular target: 人PD-1抗原 (ACRO, Cat.PD-1-H5221) (human) (UniProt Q15116); assay: summary of flow cytometry and ELISA, against the mouse parent mp148

Chains of the proteins cited; added tags and fusions are not shown. Lines headed by an entry give the natural chain unless they say otherwise; changes in a name come on top. Residues count along the entry.
UniProt Q15116: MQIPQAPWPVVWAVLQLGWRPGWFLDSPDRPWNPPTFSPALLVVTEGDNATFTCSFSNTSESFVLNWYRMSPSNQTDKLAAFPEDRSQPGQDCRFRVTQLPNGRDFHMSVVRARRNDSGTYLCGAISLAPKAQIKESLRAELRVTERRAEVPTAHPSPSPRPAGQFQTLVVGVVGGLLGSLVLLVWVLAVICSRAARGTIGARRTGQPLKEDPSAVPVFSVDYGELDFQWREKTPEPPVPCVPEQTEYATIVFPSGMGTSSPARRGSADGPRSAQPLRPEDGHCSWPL
人PD-1抗原 on Jurkat/PD-1 cells: residues 25-288 of Q15116
人PD-1抗原 (ACRO, Cat.PD-1-H5221): residues 25-167 of Q15116

Measured: binding

B1: hmp148 (antibody, V domains shown)
VH: EVQLVESGGGLVKPGGSLRLSCAASGFTFSSYDMSWVRQAPGKRLEWVATISGGGSYTYYPDSVKGRFTISRDNAKNSLYLQMNSLRTEDTAVYYCASPYEGYFDVWGQGTTVTVSS
VL: DIQMTQSPSSLSVTPGEKVTITCRASQSISNNIHWYQQKPGQSPKLLIKYASQSISGIPSRFSGSGSGTDFTLTINSLEAEDAATYFCQQSNSWPHTFGGGTKVEIK
binds: all assays above

From patent CN113234160A
